## Screening data, single-dose tests

Measurements from “University of Dundee, Small-Polar-MMV Screening Library” (2021), ChEMBL document CHEMBL3988442.

Toxoplasma: 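Assay of Toxoplasma gondii numbers, read through their beta-galactosidase reporter with a colour substrate. Concentration: 10 µM. The record gives no direction; the compounds picked for IC50 retests had high values, so higher reads as fewer parasites. Size under these conditions: about 67,000 compounds, about 260 of them at 50% or above in at least one test.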
Leishmania in macrophages: 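Cell assay of Leishmania donovani living inside macrophages; the read-out is not stated. Tested at 30 µM. Direction is inferred from retests: higher values go with stronger inhibition. About 69,000 compounds were tested under these conditions; 1.5% (about 1,000) showed 50% or more at least once.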

The filed quantity is “Percent Effect” (%). The controls that fix the scale are not given in the record; negative values are as filed. The compounds are a random part of those screened. Two or more numbers in one place are separate tests of the same structure; such repeats can differ widely.

| # | Compound | Toxoplasma | Leishmania in macrophages |
|---|---|---|---|
| 1 | `CCc1ccsc1CNC(=O)CNC(=O)C(C)(C)C` | -5.725 | -51.53 |
| 2 | `CCn1nc(C(=O)N2CCCC2c2noc(C)n2)ccc1=O` (configuration not stated) | 1.467 | 16.61 |
| 3 | `COCC1c2nnn(CC3CC3)c2CCN1C(=O)c1cc(C)[nH]c1C` (configuration not stated) | 6.497 | -5.593 |
| 4 | `[H][C@@]12CC[C@@]([H])(C1)[C@H](Nc1nccc(-c3cnn(CCC)c3C)n1)C2` | 55.29 | 33.98 |
| 5 | `Cc1ccccc1CN(Cc1ccncc1)CC(C)C` | 4.843 | 2.505 |
| 6 | `OC(CNCCn1cccn1)COc1ccc(Br)cc1` (configuration not stated) | -16.76 | 25.57 |
| 7 | `CN(C)CCCn1ccc(-c2cccc(-c3ccccn3)c2)n1` | 10.07 | -10.86 |
| 8 | `CC1CCCN(C(=O)c2nnn(-c3ccc(C(F)(F)F)cc3)n2)C1` (configuration not stated) | 1.416 | 7.962 & 3.291 |
| 9 | `CN(C)C(=O)C1(Oc2ccc(Cl)cc2)CCNCC1` | 5.03 | 13.44 |
| 10 | `CCCN(C)C(=O)c1cc(S(=O)(=O)NCC)ccc1C` | -2.781 | 28.36 |
| 11 | `CCN1CCn2c(-c3cccc(F)c3)cnc2C12CCN(C(C)=O)CC2.O=C(O)C(F)(F)F` | 6.315 | -5.599 |
| 12 | `COCCN(Cc1ccccc1)Cc1csc(-c2ncccn2)n1` | -14.36 | 7.471 |
| 13 | `CCn1ncc2c1C(COC)CN(Cc1ccc(F)cc1)C2.O=C(O)C(F)(F)F.O=C(O)C(F)(F)F` (configuration not stated) | 23.77 | -25.2 |
| 14 | `CN1CCC(N(CCc2ccccc2)C(=O)c2ccc(CO)cc2)CC1` | -23.05 | 30.31 |
| 15 | `c1cc2occc2c(N2CCCC(c3nncn3C3CC3)C2)n1` (configuration not stated) | 0.134 | -32.71 |
| 16 | `Cc1ccc(-c2noc(CCC(=O)NC(C)Cn3cccn3)n2)cc1` (configuration not stated) | 3.532 | 22.16 |
| 17 | `CCN(CC)S(=O)(=O)N1CCCC(c2nccn2Cc2ccncc2)C1` (configuration not stated) | -1.006 | 12.26 |
| 18 | `CCOCC1CN(C(=O)c2cscn2)Cc2cnn(CC3CC3)c21` (configuration not stated) | 2.059 | -30.2 |
| 19 | `COCC(C)(CCO)NC(=O)Nc1cccc(Br)c1C` (configuration not stated) | -5.664 | -26.48 |
| 20 | `Cc1nn(C)c(N(C)C)c1CNCCS(C)(=O)=O` | 16.67 | -20.22 |
| 21 | `O=C(c1ccc(-n2ccnc2)cc1)N1CCCC1` | 4.942 | -7.288 |
| 22 | `CCOc1ccc(CN2CC[C@](C)(O)C(C)(C)C2)cn1` | -3.837 | 19.51 |
| 23 | `CC(=O)N1CCN(c2cnccn2)CC(CO)C1` (configuration not stated) | 2.875 | 20.63 |
| 24 | `CC(CO)CSc1ncnc2[nH]ncc12` (configuration not stated) | -7.016 | -17.01 |
| 25 | `COCCN1CCC(C(=O)c2cc(F)ccc2F)CC1` | 3.223 | 38.11 |
| 26 | `CCOC(=O)N1CCN(c2nc(CCN)nc3sc(C)c(C)c23)CC1` | 8.336 | 81.77 |
| 27 | `O=C(O)C(F)(F)F.[H][C@@]12CN(C(=O)c3ccncc3F)C[C@]1([H])OCCN2C` | 5.904 | 18.16 |
| 28 | `CCn1c(CN(C)CC(F)(F)F)nc2c(F)cccc21` | 2.881 | 16.56 |
| 29 | `CN1CCN(C2CCN(c3cnc4ccccc4n3)CC2)C1=O` | 1.321 | 27.26 |
| 30 | `CCOCC1CN(C(=O)C2=CCCC2)Cc2cnn(C)c21` (configuration not stated) | 9.497 | 8.466 |
| 31 | `C[C@H](NC(=O)N1CCN(c2ccc(Cl)cc2)CC1)C(=O)N1CCSCC1` | 7.52 | -28.84 & -1.647 |
| 32 | `CCC(CNC(C)=O)(OC)c1ccccc1` (configuration not stated) | 6.564 | 6.235 & 17.15 |
| 33 | `CN(C)CCN1CCN(C)C2(CCN(c3nccs3)CC2)C1=O` | 6.095 | 23.32 |
| 34 | `Oc1ccccc1CN1C[C@H](O)C[C@H]1c1nc(Cc2ccccc2)no1` | 4.35 | -49.21 |
| 35 | `Cc1n[nH]c(C)c1CC(=O)N1CCN(C)C2(CCNC(=O)CC2)C1` (configuration not stated) | 0.9135 | 32.7 |
| 36 | `Cc1cc(CN2CCN(Cc3cc(C#N)ccc3F)CC2)no1` | 12.41 | 28.56 |
| 37 | `Cc1cnc(-c2nc(C3CCCN(Cc4cccs4)C3)no2)cn1` (configuration not stated) | -1.45 | 1.955 |
| 38 | `[H][C@@]12CN(CC3CCOC3)C[C@]1([H])OCCN2c1ncc(F)cn1` (some centres not stated) | 9.432 | -19.71 |
| 39 | `CCc1nc(CC2CN(c3ncnc4sc(C)c(C)c34)CCO2)no1` (configuration not stated) | -23.48 | 36.15 |
| 40 | `[H][C@@]12C=C[C@@]([H])(C1)[C@H](C(=O)N1CCN(c3cc(C)c4ccccc4n3)CC1)C2` | -1.112 | 19.09 |
| 41 | `Cn1nccc1-c1nc2c(cc1C(=O)O)CCN(CC1CC1)CC2` | -8.282 | 2.812 |
| 42 | `c1cnn(CC2CN(c3ncnc4ccsc34)CCO2)c1` (configuration not stated) | -1.784 | 45.92 |
| 43 | `COc1ccc(CN2CCc3ncnc(OC(C)C)c3CC2)cc1.O=C(O)C(F)(F)F` | 1.175 | -38.65 |
| 44 | `Cc1ccc(-c2nnc(CN3CCc4nn(C)c(=O)cc4C3)o2)cc1` | 4.797 | -4.838 |
| 45 | `[H][C@@]12CCN(C(=O)NC(C)C)CC[C@]1(C(=O)N(C)C)CCN2CC` | -14.16 | 0.9017 |
| 46 | `Cc1cc(C(=O)N2CCOC[C@H](Oc3cnccn3)C2)c(C(F)(F)F)o1` | -4.453 | 12.26 |
| 47 | `CC(C)Cc1nc(CN2CCOC(Cn3cncn3)C2)no1` (configuration not stated) | -4.244 | -15.48 |
| 48 | `F[C@@H]1CN(CC2CC2)C[C@@H]1OCc1nc2ccc(C(F)(F)F)cc2[nH]1` | -1.165 | 8.917 |
| 49 | `O=C1C(Sc2nc(=O)ccn2C2CC2)CCN1c1ccccc1` (configuration not stated) | -11.73 | 13.39 |
| 50 | `CCCC(C#N)NC(=O)Cc1csc(CC)n1` (configuration not stated) | 7.891 | 15.43 |
| 51 | `CCN1CCN(C2CCN(C(C(N)=O)c3ccc(F)cc3)CC2)C1=O` (configuration not stated) | 2.835 | -5.077 |
| 52 | `CC(C)(C)OC(=O)N1CCCc2ccc(NCc3ncc[nH]3)cc21` | -30.9 | 5.579 |
| 53 | `CC1c2ncc(COc3cccnc3)n2CCN1C(=O)C1=CCCCC1.O=C(O)C(F)(F)F` (configuration not stated) | -5.177 | -5.937 |
| 54 | `Cc1ccc(-c2cc(C(=O)NCCCc3csc(N)n3)[nH]n2)s1` | 16.19 | 19.81 |
| 55 | `CN(Cc1nc(N2CCCC2)ncc1-c1ccncc1)C(=O)C(C)(C)C.Cl` | 24.76 | 18.46 |
| 56 | `Cc1cnn(CC2CCCN2CC(=O)N(C)CCC#N)c1` (configuration not stated) | -3.578 | -7.017 |

Some entries from above, unchanged:

{"compound": "CCOCC1CN(C(=O)C2=CCCC2)Cc2cnn(C)c21", "stereo": "configuration not stated", "Toxoplasma": 9.497, "Leishmania in macrophages": 8.466}
{"compound": "O=C(O)C(F)(F)F.[H][C@@]12CN(C(=O)c3ccncc3F)C[C@]1([H])OCCN2C", "Toxoplasma": 5.904, "Leishmania in macrophages": 18.16}
{"compound": "CCn1ncc2c1C(COC)CN(Cc1ccc(F)cc1)C2.O=C(O)C(F)(F)F.O=C(O)C(F)(F)F", "stereo": "configuration not stated", "Toxoplasma": 23.77, "Leishmania in macrophages": -25.2}
{"compound": "Cc1cc(C(=O)N2CCOC[C@H](Oc3cnccn3)C2)c(C(F)(F)F)o1", "Toxoplasma": -4.453, "Leishmania in macrophages": 12.26}